# Reference: PubChem BioAssay AID602196 (INSERM, 2012)
# Test: 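Genes whose knock-down alters cisplatin killing of lung cancer cells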
# System: human A549 lung cancer cells
# Knock-down reagent: siRNA pair against human genes
# Duration: 48 h transfection before cisplatin; time from cisplatin to read-out not stated
# Conditions: cisplatin at a dose killing half of control-siRNA cells; exact dose and duration not given
# Read-out: 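Shift in cisplatin death relative to control siRNA, from -50 (all cells die) to +50 (no cells die); siRNAs harmful on their own scored 0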
# Scale: two-siRNA summed score (-2 to +2): higher = both siRNAs protect from cisplatin killing; -2 means both sensitise
# Active means: 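siRNAs harmful alone (LDH or WST-1) get 0; others get +1 for less and -1 for more cisplatin killing; genes are active when the two siRNAs give the same sign, summing to ±2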
# Calls: active = both siRNAs shift cisplatin killing the same way; inactive = no consistent shift, or siRNA harmful alone
# The whole screen tested about 23,000 reagents; shown is a random part of them. 455 of all reagents (2%) count as active. 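Active includes both protection and sensitisation; some change values fall well beyond the stated -50 to +50 range.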 Further read-outs or replicates are left out here. Reagent sequences are not shown. Not given: the amount of reagent.
Gene,two-siRNA summed score (-2 to +2),Call
ZNF266,0,inactive
FOXE1,0,inactive
CALCRL,0,inactive
GPR137B,0,inactive
PACSIN3,1,inactive
GLI1,0,inactive
CEACAM5,0,inactive
LOC388690,0,inactive
SAMM50,0,inactive
LOC440981 (retired record),1,inactive
CD52,0,inactive
MCM9,0,inactive
LOC400725,0,inactive
HACE1,0,inactive
GJB3,0,inactive
SRPX,0,inactive
LOC400263,0,inactive
MYL6P5,0,inactive
LOC442243,1,inactive
DNAJC9,1,inactive
SMPD2,1,inactive
LOC441070,0,inactive
LOC440506,1,inactive
PDZD8,0,inactive
OCM2,0,inactive
CYLD,-1,inactive
ZFAT,0,inactive
LRRC17,-1,inactive
BMP8A,-1,inactive
XPC,-1,inactive
CA15P2,0,inactive
CREB3,0,inactive

Reprinted from above (8 entries):
Gene,two-siRNA summed score (-2 to +2),Call
PACSIN3,1,inactive
GLI1,0,inactive
CEACAM5,0,inactive
LOC388690,0,inactive
SAMM50,0,inactive
LOC440981 (retired record),1,inactive
CD52,0,inactive
MCM9,0,inactive

The listing continues.
Gene,two-siRNA summed score (-2 to +2),Call
CDC25A,-1,inactive
LINC01270,0,inactive
RNF151,-1,inactive
LOC149281,0,inactive
LOC401876,1,inactive
UBR2,0,inactive
CDON,0,inactive
ADGRG7,0,inactive
AAK1,0,inactive
PXK,1,inactive
OTOG,0,inactive
LOC441812,0,inactive
MGC10646,0,inactive
ADGRG6,0,inactive
RRP1B,0,inactive
TEX35,0,inactive
CDH13,1,inactive
RPL22,1,inactive
TINF2,0,inactive
BAZ1B,0,inactive
RNF135,-1,inactive
ARCN1,0,inactive
CSN2,-1,inactive
MAU2,0,inactive
IFNAR1,0,inactive
SHFL,0,inactive
NOL12,-1,inactive
MSS51,0,inactive
BAD,0,inactive
RBBP8NL,0,inactive
EVI5L,0,inactive
LOC441048,0,inactive
TALDO1,0,inactive
LOC391144,0,inactive
AMD1,1,inactive
GNPTG,0,inactive
FBXW12,0,inactive
BCAM,0,inactive
NOTCH1,0,inactive
PROZ,-1,inactive
LOC388344,0,inactive
